Experimental data reported in the supplement of paper PMC10849652.
This is one part of the list. Residues, ends and D or L forms follow the SMILES beside them. *: point of attachment. Cbz = O=C(OCc1ccccc1)*

The chains behind the UniProt entries cited, without tags or fusion partners. Where a name states a change or a piece, a line headed by the entry shows the natural chain unless it says otherwise.
UniProt Q9H490: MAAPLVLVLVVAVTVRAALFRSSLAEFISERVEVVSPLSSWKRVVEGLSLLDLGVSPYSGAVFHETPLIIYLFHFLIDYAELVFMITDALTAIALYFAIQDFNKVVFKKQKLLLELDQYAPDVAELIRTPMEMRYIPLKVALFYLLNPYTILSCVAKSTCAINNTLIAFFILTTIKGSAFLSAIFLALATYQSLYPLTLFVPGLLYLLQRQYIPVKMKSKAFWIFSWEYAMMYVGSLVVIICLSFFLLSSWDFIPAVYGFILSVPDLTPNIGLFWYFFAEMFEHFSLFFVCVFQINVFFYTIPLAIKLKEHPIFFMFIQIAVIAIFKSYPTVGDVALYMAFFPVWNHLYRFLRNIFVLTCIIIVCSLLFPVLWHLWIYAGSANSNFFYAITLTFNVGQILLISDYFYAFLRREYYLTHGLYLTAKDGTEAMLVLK
UniProt O95336: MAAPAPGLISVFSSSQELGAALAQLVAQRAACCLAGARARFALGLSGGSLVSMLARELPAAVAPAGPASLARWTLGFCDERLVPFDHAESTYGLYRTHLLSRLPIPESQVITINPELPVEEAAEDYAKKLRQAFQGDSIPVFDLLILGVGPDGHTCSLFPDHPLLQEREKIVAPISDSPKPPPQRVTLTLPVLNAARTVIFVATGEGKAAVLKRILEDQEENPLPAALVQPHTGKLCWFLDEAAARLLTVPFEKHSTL
UniProt Q92576, whole entry, looked up: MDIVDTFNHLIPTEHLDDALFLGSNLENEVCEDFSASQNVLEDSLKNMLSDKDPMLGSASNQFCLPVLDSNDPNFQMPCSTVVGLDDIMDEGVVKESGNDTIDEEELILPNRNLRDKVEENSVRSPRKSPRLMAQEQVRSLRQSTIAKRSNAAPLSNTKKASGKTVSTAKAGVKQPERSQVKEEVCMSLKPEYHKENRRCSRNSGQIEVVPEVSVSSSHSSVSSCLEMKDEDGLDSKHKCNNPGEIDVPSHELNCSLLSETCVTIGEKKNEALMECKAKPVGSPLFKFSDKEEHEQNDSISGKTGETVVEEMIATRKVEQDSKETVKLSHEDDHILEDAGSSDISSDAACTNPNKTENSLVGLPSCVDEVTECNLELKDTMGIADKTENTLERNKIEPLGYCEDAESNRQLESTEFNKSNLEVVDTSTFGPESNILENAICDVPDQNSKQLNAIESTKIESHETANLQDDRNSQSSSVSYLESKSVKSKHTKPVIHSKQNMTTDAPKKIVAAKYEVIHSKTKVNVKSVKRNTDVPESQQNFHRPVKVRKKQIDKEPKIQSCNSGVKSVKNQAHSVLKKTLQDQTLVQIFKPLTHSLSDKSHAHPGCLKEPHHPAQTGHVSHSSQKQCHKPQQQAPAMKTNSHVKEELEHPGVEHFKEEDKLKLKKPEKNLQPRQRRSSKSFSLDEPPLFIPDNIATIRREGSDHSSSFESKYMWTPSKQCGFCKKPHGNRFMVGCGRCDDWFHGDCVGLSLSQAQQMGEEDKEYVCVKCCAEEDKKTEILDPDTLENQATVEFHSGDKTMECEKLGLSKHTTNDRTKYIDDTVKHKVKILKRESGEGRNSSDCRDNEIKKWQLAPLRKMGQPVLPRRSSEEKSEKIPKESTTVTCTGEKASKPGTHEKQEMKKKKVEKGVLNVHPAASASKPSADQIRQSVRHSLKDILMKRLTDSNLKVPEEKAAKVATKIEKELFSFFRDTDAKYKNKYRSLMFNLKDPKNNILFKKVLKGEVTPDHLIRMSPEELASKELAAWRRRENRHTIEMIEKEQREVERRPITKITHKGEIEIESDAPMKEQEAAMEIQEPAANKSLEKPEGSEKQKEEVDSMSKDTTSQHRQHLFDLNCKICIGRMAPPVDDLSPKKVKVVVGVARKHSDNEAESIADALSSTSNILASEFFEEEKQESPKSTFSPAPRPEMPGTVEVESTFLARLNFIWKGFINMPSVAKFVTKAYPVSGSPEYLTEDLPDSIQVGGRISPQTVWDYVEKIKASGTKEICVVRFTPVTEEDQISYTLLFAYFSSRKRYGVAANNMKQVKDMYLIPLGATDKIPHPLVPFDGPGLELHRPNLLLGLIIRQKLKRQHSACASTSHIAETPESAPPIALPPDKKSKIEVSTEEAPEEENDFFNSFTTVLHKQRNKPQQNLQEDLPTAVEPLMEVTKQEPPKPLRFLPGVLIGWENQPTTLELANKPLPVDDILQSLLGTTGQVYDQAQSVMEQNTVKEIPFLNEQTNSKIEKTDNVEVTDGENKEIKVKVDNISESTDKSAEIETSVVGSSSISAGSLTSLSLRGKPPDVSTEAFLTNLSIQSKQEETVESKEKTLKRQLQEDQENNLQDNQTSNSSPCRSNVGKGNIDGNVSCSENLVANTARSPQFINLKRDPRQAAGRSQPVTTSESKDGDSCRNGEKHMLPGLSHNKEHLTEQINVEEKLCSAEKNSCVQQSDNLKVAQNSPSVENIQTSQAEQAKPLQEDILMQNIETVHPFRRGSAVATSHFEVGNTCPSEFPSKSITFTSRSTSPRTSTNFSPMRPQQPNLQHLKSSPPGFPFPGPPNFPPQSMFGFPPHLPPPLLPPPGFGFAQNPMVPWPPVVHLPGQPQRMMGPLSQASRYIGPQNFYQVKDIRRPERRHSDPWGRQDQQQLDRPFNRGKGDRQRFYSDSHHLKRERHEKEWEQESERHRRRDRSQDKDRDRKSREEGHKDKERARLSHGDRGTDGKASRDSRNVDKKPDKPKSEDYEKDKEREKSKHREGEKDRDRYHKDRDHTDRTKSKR
UniProt Q99570, whole entry, looked up: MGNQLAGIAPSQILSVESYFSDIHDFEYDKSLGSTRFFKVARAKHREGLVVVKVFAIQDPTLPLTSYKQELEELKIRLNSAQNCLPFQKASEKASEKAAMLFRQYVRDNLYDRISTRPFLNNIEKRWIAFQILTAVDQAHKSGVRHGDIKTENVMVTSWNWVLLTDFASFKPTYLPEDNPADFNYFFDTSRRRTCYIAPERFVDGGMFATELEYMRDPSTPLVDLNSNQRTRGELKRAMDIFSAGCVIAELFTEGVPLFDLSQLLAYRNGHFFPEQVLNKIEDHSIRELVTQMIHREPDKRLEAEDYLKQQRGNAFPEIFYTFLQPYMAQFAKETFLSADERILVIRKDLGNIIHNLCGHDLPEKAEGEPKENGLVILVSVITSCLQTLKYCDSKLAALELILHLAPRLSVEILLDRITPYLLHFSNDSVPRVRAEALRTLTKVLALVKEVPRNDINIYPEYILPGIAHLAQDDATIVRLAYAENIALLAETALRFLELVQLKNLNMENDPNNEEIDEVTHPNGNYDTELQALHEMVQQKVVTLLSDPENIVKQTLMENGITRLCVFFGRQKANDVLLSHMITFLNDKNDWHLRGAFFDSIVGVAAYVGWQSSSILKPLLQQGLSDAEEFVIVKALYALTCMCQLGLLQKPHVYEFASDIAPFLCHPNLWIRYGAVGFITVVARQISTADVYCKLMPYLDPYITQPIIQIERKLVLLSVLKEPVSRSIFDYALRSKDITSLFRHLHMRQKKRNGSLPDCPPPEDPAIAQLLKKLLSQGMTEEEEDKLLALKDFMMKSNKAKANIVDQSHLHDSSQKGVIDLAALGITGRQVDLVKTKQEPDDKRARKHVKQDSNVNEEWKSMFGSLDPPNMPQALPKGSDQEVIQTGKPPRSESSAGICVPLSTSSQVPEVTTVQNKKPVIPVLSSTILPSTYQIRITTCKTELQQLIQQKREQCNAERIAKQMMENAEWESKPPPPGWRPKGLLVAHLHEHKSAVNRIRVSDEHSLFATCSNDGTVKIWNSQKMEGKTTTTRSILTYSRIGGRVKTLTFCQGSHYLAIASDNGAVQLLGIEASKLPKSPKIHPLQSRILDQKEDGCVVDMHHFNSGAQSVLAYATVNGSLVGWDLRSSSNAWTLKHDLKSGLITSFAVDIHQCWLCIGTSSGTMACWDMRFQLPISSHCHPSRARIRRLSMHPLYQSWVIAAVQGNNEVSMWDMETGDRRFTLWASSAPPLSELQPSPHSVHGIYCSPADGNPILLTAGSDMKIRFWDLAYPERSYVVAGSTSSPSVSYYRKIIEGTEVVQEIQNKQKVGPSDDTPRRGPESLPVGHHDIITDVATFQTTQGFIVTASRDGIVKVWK
UniProt A6NDG6: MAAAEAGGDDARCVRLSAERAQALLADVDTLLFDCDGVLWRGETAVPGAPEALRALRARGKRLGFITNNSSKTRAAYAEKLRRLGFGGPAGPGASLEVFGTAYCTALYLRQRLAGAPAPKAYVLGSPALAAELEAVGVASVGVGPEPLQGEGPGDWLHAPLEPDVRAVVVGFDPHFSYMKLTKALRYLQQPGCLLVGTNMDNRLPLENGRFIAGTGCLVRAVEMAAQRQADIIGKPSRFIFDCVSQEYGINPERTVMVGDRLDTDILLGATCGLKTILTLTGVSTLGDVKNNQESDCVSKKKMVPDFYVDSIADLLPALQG
UniProt P28328: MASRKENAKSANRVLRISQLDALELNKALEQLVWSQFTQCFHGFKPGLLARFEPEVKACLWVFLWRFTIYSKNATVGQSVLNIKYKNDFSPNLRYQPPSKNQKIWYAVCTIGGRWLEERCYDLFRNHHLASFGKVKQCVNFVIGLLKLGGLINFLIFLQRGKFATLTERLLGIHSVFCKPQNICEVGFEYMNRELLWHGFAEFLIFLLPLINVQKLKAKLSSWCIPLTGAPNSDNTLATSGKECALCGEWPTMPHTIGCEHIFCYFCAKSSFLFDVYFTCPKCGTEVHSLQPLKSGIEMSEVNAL
UniProt P51178: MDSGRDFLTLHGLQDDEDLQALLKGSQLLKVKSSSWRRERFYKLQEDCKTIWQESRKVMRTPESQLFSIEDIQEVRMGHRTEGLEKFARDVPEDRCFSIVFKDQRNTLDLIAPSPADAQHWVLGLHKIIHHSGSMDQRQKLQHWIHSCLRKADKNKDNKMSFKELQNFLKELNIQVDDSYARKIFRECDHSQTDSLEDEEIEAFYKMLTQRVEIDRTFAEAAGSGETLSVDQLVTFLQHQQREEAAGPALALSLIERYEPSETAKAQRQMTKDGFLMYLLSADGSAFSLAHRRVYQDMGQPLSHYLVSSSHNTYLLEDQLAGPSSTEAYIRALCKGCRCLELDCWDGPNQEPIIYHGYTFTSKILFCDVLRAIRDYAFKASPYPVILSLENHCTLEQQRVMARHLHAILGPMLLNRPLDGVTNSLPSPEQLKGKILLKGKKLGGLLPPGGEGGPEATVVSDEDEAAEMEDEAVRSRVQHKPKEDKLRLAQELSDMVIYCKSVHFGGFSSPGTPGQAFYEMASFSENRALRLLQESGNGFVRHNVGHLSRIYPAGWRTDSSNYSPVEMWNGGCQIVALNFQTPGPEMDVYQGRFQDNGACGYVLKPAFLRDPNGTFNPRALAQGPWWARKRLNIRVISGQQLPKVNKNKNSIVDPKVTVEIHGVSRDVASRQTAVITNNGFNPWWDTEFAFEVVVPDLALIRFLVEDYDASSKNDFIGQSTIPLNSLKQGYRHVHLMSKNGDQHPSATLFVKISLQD
UniProt P40855: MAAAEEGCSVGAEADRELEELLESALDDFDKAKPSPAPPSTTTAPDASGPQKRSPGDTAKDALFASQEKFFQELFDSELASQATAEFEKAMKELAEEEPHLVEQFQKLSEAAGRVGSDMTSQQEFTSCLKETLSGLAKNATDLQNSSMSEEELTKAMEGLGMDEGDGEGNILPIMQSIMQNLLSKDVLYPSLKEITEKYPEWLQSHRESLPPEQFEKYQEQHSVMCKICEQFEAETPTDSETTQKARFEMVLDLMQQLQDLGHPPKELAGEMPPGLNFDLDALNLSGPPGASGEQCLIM
UniProt P00558: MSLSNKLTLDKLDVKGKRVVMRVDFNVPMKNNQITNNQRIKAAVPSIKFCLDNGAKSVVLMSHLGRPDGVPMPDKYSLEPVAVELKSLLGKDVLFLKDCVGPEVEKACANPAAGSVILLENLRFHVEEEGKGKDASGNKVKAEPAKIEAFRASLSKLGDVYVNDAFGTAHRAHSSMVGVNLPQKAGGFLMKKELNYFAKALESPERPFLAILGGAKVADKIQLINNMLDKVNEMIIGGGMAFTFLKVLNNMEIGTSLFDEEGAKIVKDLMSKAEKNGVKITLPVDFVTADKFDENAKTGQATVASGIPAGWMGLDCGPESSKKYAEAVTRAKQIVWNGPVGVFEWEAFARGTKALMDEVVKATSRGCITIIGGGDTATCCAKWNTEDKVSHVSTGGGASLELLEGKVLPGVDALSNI
UniProt Q96BK5: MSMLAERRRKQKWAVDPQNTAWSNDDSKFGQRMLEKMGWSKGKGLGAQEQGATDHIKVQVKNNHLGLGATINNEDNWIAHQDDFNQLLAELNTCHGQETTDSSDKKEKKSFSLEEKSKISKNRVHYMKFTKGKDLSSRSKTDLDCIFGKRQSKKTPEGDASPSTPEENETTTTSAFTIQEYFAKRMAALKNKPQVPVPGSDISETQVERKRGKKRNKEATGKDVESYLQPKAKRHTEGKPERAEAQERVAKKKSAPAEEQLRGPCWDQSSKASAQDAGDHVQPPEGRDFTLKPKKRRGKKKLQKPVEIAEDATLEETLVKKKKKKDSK

Assays:
Test in all cases: log2 fold change, soluble protein after heating vs DMSO (PISA); higher = thermal stabilisation; K562 cells, 10 uM, 30 min; active = over 0.2 and 3.5 SD of the protein, either way, in both replicates (recomputed)
erlotinib = compound: C#Cc1cccc(Nc2ncnc3cc(OCCOC)c(OCCOC)cc23)c1 [erlotinib]
How it was run: (§1)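 Soluble protein was defined as the supernatant after 21,000xg for 90 min. It came from K562 cells at 2×10^6 cells/mL given 10 μM compound for 30 min, heated in aliquots for 3 min across 48°C-58°C, pooled, and extracted in PBS with 0.5% NP-40 at 4°C, and was quantified by TMTpro 16plex LC-MS/MS with equalised channel sums. Thermal stability against control samples, from duplicates, is reported as log2 fold change.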

[1] = compound: C/C(=N\NC(=O)C1=CC(=CC=C1)S(=O)(=O)N2CCOCC2)/C3=C(C=CC(=C3)Cl)O
How it was run: as §1

[2] = compound: C1=CC(=C(C=C1Cl)C2=NC3=NC=CN=C3C(=N2)NC4=CC=NC=C4)F
How it was run: as §1

[3] = compound: C1=CC(=CC=C1C2=NC3=C(N2)C=C(C=C3)C(=O)N)OC4=CC=C(C=C4)Cl
How it was run: as §1

[4] = compound: C1=CC2=C(C=CC(=C2)/C=C\3/C(=O)NC(=NCC4=CC=CS4)S3)N=C1
How it was run: as §1

[5] = compound: C1=CC2=NC=CN=C2C=C1/C=C/3\C(=O)NC(=O)S3
How it was run: as §1

[6] = compound: C1=CC=C(C=C1)C2=NC(=C(N2)C3=CC=NC=C3)C4=CC(=C(C=C4)Cl)O
How it was run: as §1

[7] = compound: C1=CC=C2C(=C1)C3=NNC4=CC=CC(=C43)C2=O
How it was run: as §1

[8] = compound: C1CCN(C1)C(=O)NC2=CC=CC(=C2)NC3=NC=C(C(=N3)NCCC4=CN=CN4)Br
How it was run: as §1

[9] = compound: C1CN(CCC1(CC2=CC=C(C=C2)Cl)N)C3=NC=NC4=C3C=CN4
How it was run: as §1

IRAK-1-4 Inhibitor I = compound: C1COCCN1CCN2C3=CC=CC=C3N=C2NC(=O)C4=CC(=CC=C4)[N+](=O)[O-] [IRAK-1-4 Inhibitor I]
How it was run: as §1

ibrutinib = compound: C=CC(=O)N1CCC[C@@H](n2nc(-c3ccc(Oc4ccccc4)cc3)c3c(N)ncnc32)C1 [ibrutinib]
How it was run: as §1

[10] = compound: CC(=O)c1cnc2ccc(-c3cc(Cl)c(O)c(Cl)c3)nc2c1N[C@H]1CC[C@H](CN(C)C)CC1
How it was run: as §1

ralimetinib = compound: CC(C)(C)Cn1c(N)nc2ccc(-c3[nH]c(C(C)(C)C)nc3-c3ccc(F)cc3)nc21 [ralimetinib]
How it was run: as §1

[11] = compound: CC(C)(O)CC(=O)NCCn1ccc2ncnc(Nc3ccc(Oc4cccc(C(F)(F)F)c4)c(Cl)c3)c21
How it was run: as §1

[12] = compound: CC(C)C1=C2N=C(C=C(N2N=C1)NCC3=CC=CC=C3)NCCCCCCN
How it was run: as §1

[13] = compound: CC(C)C[C@@H](C=O)NC(=O)[C@H](CC(C)C)NC(=O)[C@H](CC(C)C)NC(=O)OCc1ccccc1
How it was run: as §1

pinometostat = compound: CC(C)N(C[C@H]1O[C@@H](n2cnc3c(N)ncnc32)[C@H](O)[C@@H]1O)[C@H]1C[C@@H](CCc2nc3cc(C(C)(C)C)ccc3[nH]2)C1 [pinometostat]
How it was run: as §1

[14] = compound: CC1=C(C(CC(=O)N1)C2=CC=C(C=C2)C(F)(F)F)C(=O)NC3=C(C=C4C(=C3)C=NN4)F
How it was run: as §1

[15] = compound: CC1=C(C2=C(C=C1)C(=O)C3=CC=CC=C3N2CCCN)C
How it was run: as §1

Measured: log2 fold change

PLEC (UniProt Q15149)
inactive: erlotinib -0.016 | [1] -0.059 | [2] -0.154 | [3] -0.017 | [4] -0.005 | [5] -0.042 | [6] -0.003 | [7] 0.032 | [8] -0.004 | [9] -0.134 | IRAK-1-4 Inhibitor I -0.026 | ibrutinib 0.009 | [10] -0.034 | ralimetinib 0.162 | [11] 0.003 | [12] -0.089 | [13] 0.085 | pinometostat 0.11 | [14] 0.004 | [15] -0.082

PIGU (UniProt Q9H490)
inactive: erlotinib 0.018 | [1] 0.035 | [2] -0.059 | [3] -0.006 | [4] -0.133 | [5] 0.102 | [6] 0.043 | [7] 0.066 | [8] -0.11 | [9] -0.004 | IRAK-1-4 Inhibitor I 0.035 | ibrutinib 0.009 | [10] -0.049 | ralimetinib 0.023 | [11] -0.146 | [12] -0.112 | [13] -0.025 | pinometostat 0.067 | [14] -0.03 | [15] -0.019

PGLS (UniProt O95336)
inactive: erlotinib -0.025 | [1] 0.034 | [2] 0.205 | [3] 0.046 | [4] 0.069 | [5] 0.107 | [6] 0.121 | [7] 0.032 | [8] 0.019 | [9] -0.027 | IRAK-1-4 Inhibitor I 0.016 | ibrutinib -0.015 | [10] -0.135 | ralimetinib -0.103 | [11] -0.127 | [12] 0.019 | [13] -0.112 | pinometostat -0.014 | [14] 0.061 | [15] 0.242

PIGA (UniProt P37287)
inactive: erlotinib -0.038 | [1] -0.047 | [2] 0.011 | [3] -0.019 | [4] -0.1 | [5] 0.056 | [6] 0.128 | [7] -0.102 | [8] -0.007 | [9] 0.039 | IRAK-1-4 Inhibitor I 0.031 | ibrutinib -0.009 | [10] 0.007 | ralimetinib -0.058 | [11] -0.105 | [12] 0.049 | [13] -0.023 | pinometostat -0.003 | [14] 0.001 | [15] 0.031

Looked up one by one from above, two records:
PLEC (UniProt Q15149)
inactive: erlotinib -0.016 | [1] -0.059 | [2] -0.154 | [3] -0.017 | [4] -0.005 | [5] -0.042 | [6] -0.003 | [7] 0.032 | [8] -0.004 | [9] -0.134 | IRAK-1-4 Inhibitor I -0.026 | ibrutinib 0.009 | [10] -0.034 | ralimetinib 0.162 | [11] 0.003 | [12] -0.089 | [13] 0.085 | pinometostat 0.11 | [14] 0.004 | [15] -0.082

PIGU (UniProt Q9H490)
inactive: erlotinib 0.018 | [1] 0.035 | [2] -0.059 | [3] -0.006 | [4] -0.133 | [5] 0.102 | [6] 0.043 | [7] 0.066 | [8] -0.11 | [9] -0.004 | IRAK-1-4 Inhibitor I 0.035 | ibrutinib 0.009 | [10] -0.049 | ralimetinib 0.023 | [11] -0.146 | [12] -0.112 | [13] -0.025 | pinometostat 0.067 | [14] -0.03 | [15] -0.019

Going on with the list.

PHF3 (UniProt Q92576)
inactive: erlotinib -0.072 | [1] -0.114 | [2] -0.24 | [3] 0.014 | [4] -0.172 | [5] 0 | [6] -0.048 | [7] -0.088 | [8] -0.097 | [9] -0.107 | IRAK-1-4 Inhibitor I -0.049 | ibrutinib -0.031 | [10] 0.187 | ralimetinib 0.049 | [11] 0.061 | [12] 0.11 | [13] 0.122 | pinometostat 0.175 | [14] -0.07 | [15] 0.28

PITPNA (UniProt Q00169)
inactive: erlotinib 0.017 | [1] 0.016 | [2] 0.091 | [3] -0.004 | [4] 0.007 | [5] 0.031 | [6] 0.017 | [7] -0.008 | [8] -0.004 | [9] 0.029 | IRAK-1-4 Inhibitor I 0.029 | ibrutinib 0.001 | [10] -0.004 | ralimetinib -0.048 | [11] -0.003 | [12] 0.079 | [13] -0.001 | pinometostat -0.01 | [14] 0.004 | [15] 0.023

PIK3R4 (UniProt Q99570)
inactive: erlotinib -0.004 | [1] -0.023 | [2] -0.014 | [3] -0.007 | [4] -0.003 | [5] 0.097 | [6] -0.033 | [7] 0.043 | [8] -0.009 | [9] 0.01 | IRAK-1-4 Inhibitor I 0.033 | ibrutinib -0.013 | [10] 0.125 | ralimetinib -0.023 | [11] -0.014 | [12] -0.016 | [13] 0.025 | pinometostat 0.053 | [14] -0.015 | [15] 0.09

PGP (UniProt A6NDG6)
inactive: erlotinib -0.005 | [1] 0.036 | [2] 0.02 | [3] -0.029 | [4] 0.016 | [5] 0.039 | [6] -0.01 | [7] 0.005 | [8] 0.001 | [9] 0.016 | IRAK-1-4 Inhibitor I 0.017 | ibrutinib -0.027 | [10] -0.009 | ralimetinib -0.028 | [11] -0.018 | [12] 0.062 | [13] -0.018 | pinometostat -0.068 | [14] 0.008 | [15] -0.02

PEX2 (UniProt P28328)
inactive: erlotinib -0.067 | [1] 0.07 | [2] 0.092 | [3] -0.087 | [4] 0.025 | [5] 0.129 | [6] 0.039 | [7] -0.011 | [8] -0.069 | [9] 0.068 | IRAK-1-4 Inhibitor I -0.036 | ibrutinib -0.039 | [10] -0.06 | ralimetinib 0.036 | [11] -0.092 | [12] -0.06 | [13] 0.071 | pinometostat 0.046 | [14] 0.044 | [15] 0.04

PLCD1 isoform 2 (UniProt P51178)
inactive: erlotinib 0.01 | [1] 0.044 | [2] -0.031 | [3] 0.01 | [4] 0.117 | [5] -0.01 | [6] 0.017 | [7] 0.007 | [8] 0.022 | [9] -0.053 | IRAK-1-4 Inhibitor I -0.014 | ibrutinib 0.014 | [10] -0.146 | ralimetinib -0.007 | [11] -0.113 | [12] -0.085 | [13] 0.035 | pinometostat 0.042 | [14] 0.014 | [15] 0.018

PEX19 (UniProt P40855)
inactive: erlotinib -0.002 | [1] -0.028 | [2] 0.02 | [3] 0.002 | [4] -0.046 | [5] 0.027 | [6] 0.023 | [7] -0.004 | [8] -0.022 | [9] 0.034 | IRAK-1-4 Inhibitor I 0.033 | ibrutinib 0.017 | [10] 0.035 | ralimetinib 0.029 | [11] 0.009 | [12] 0.072 | [13] 0.063 | pinometostat -0.024 | [14] 0.028 | [15] -0.035

PGK1 (UniProt P00558)
inactive: erlotinib -0.028 | [1] 0 | [2] 0.065 | [3] 0.007 | [4] 0.01 | [5] -0.018 | [6] 0.009 | [7] 0.02 | [8] 0.018 | [9] 0.029 | IRAK-1-4 Inhibitor I 0.06 | ibrutinib 0.007 | [10] -0.019 | ralimetinib -0.022 | [11] 0 | [12] 0.011 | [13] -0.006 | pinometostat -0.02 | [14] -0.031 | [15] 0.08

PIN4 isoform 2 (UniProt Q9Y237)
inactive: erlotinib -0.02 | [1] 0.078 | [2] 0.024 | [3] 0.005 | [4] -0.034 | [5] 0.056 | [6] -0.004 | [7] 0.054 | [8] -0.003 | [9] -0.016 | IRAK-1-4 Inhibitor I 0.041 | ibrutinib -0.012 | [10] 0.006 | ralimetinib -0.083 | [11] -0.007 | [12] 0.047 | [13] -0.027 | pinometostat -0.01 | [14] 0.016 | [15] 0.014

PGAM4 (UniProt Q8N0Y7)
inactive: erlotinib 0.034 | [1] -0.01 | [2] 0.034 | [3] 0.002 | [4] -0.04 | [5] 0.044 | [6] -0.015 | [7] -0.014 | [8] 0.022 | [9] 0.09 | IRAK-1-4 Inhibitor I 0.071 | ibrutinib 0.018 | [10] 0.024 | ralimetinib -0.043 | [11] 0.038 | [12] 0.062 | [13] 0.03 | pinometostat -0.025 | [14] 0.043 | [15] -0.012

PINX1 (UniProt Q96BK5)
inactive: erlotinib -0.115 | [1] -0.288 | [2] -0.673 | [3] -0.08 | [4] -0.138 | [5] 0.134 | [6] -0.095 | [7] -0.112 | [8] 0.214 | [9] 0.02 | IRAK-1-4 Inhibitor I -0.291 | ibrutinib 0.167 | [10] 0.233 | ralimetinib 0.208 | [11] 0.052 | [12] 0.09 | [13] 0.149 | pinometostat 0.231 | [14] -0.125 | [15] -0.362

PKLR (UniProt P30613)
inactive: erlotinib 0.01 | [1] -0.004 | [2] 0.042 | [3] -0.006 | [4] -0.02 | [5] -0.001 | [6] -0.032 | [7] 0.023 | [8] -0.025 | [9] 0.041 | IRAK-1-4 Inhibitor I 0.034 | ibrutinib 0.011 | [10] -0.002 | ralimetinib -0.036 | [11] -0.002 | [12] 0.064 | [13] -0.02 | pinometostat -0.045 | [14] 0.027 | [15] -0.012
